Article PMC9947307
Results are given in words; binding and its absence hold for the method and conditions named. Binding seen in cells or lysates may run through a third protein. Some results given as binding are weak or reduced against the parent protein; the word gives no strength.

By UniProt entry, the sequences of proteins in these tests, tags left out.
UniProt P28033: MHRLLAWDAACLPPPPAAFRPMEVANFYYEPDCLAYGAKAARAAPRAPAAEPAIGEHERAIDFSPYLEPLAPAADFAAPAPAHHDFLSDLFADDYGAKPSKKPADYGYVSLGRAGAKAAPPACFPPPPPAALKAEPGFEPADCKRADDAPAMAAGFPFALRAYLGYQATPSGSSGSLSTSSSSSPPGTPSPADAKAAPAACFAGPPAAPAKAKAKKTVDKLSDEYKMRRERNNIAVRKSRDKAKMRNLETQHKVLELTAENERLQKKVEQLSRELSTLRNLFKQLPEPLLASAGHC
UniProt Q04207: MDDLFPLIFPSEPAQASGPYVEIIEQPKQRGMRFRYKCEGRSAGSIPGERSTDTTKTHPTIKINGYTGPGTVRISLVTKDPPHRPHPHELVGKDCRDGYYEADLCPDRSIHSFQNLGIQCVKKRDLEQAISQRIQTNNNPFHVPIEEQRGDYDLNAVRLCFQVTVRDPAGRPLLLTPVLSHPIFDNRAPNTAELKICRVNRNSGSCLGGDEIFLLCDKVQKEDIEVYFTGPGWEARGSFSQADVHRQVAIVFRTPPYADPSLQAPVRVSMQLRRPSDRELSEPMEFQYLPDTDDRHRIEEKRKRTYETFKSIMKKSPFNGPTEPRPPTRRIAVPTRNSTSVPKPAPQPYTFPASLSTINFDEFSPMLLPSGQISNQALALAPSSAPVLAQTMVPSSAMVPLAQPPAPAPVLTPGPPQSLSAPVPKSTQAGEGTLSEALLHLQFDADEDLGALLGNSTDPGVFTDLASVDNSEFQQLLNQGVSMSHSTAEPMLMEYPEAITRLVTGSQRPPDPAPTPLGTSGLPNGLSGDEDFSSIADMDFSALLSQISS

Target: T1, S100A9 (mouse (endogenous in BCG-elicited peritoneal neutrophils)) (UniProt P31725)
T1 sequence: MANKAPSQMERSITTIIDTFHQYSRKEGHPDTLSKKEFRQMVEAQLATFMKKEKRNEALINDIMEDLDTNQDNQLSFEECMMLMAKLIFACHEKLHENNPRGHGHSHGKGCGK
Experiment: co-IP; nuclear extracts of BCG-elicited mouse neutrophils incubated with anti-S100A9 antibody (or control rabbit IgG) overnight at 4°C; protein G-Sepharose beads; washed thrice with ChIP dilution buffer; immunoblot with anti-C/EBPβ, anti-p65 and anti-S100A9

binding	Substance
binds	C/EBPβ (from UniProt P28033 1-296)
no binding	nuclear factor κB component p65 (from UniProt Q04207 1-549)
